Experimental data: PubChem BioAssay AID1224828 (NIAID, 2016)

Test: 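Knock-downs that increase or decrease LPS-induced p65 nuclear translocation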 (primary screen)
Cell system: mouse RAW264.7 G9 macrophage reporter cells (GFP-p65, Tnf promoter-mCherry)
Knock-down reagent: siRNA pool against mouse genes, 100 nM
Duration: 2 days siRNA transfection, then 40 min LPS before fixation
Treatment: LPS (Salmonella minnesota R595) at 10 ng/ml
Detection: 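Imaged p65 nuclear translocation ratio, normalised to the plate median, converted to robust z-scores and averaged across two replicates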
Direction: p65 translocation robust z-score: higher = more nuclear NF-kappaB p65 after LPS than the plate median; nuclear/cytoplasmic p65 ratio: higher = more nuclear NF-kappaB p65
Hit rule: 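Called active when z exceeds 3.3 or falls under -1.56 (median of Tlr4 controls), giving activity score of at least 50; no calls for control wells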
Calls: active = hit (p65 shift raised or lowered); inactive = no clear change
In all, the deposit lists about 17,000 reagents; this is an unselected part. 762 of them (4.5%) were called active. 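Active calls include both raised and lowered p65 entry, mostly lowered; wells with fewer than 50 cells lack a z-score.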 Raw values are not corrected between plates. Entries without a mark were called inactive. Reagent sequences are not shown.

| gene | PubChem SID | p65 translocation robust z-score | nuclear/cytoplasmic p65 ratio, rep 1 | nuclear/cytoplasmic p65 ratio, rep 2 | low cell count flag |
| --- | --- | --- | --- | --- | --- |
| Ntn4 | SID315471816 | 0.9 | 1.59 | 1.51 | enough cells to score |
| U2af1l4 | SID315479052 | – | 1.27 | 0 | fewer than 50 cells per well; well left out of scoring |
| Hand2 | SID315467141 | 0.13 | 1.28 | 1.56 | enough cells to score |
| Aimp2 | SID315478942 | 0.35 | 1.65 | 1.43 | enough cells to score |
| Chm | SID315465962 | 0.05 | 1.53 | 1.33 | enough cells to score |
| Pten | SID315468767 | -0.26 | 1.39 | 1.44 | enough cells to score |
| Pten | SID315481253 | -0.19 | 1.47 | 1.9 | enough cells to score |
| Aifm3 | SID315474480 | 0.66 | 1.51 | 1.52 | enough cells to score |
| Map2k7 | SID315470378 | -0.92 | 1.41 | 1.26 | enough cells to score |
| Atp5mc2 | SID315473324 | 0.36 | 1.57 | 1.65 | enough cells to score |
| Iqcf4 | SID315472964 | -0.38 | 1.2 | 1.37 | enough cells to score |
| Tubb2a | SID315469876 | -0.21 | 1.59 | 1.38 | enough cells to score |
| Fhad1 | SID315481564 | -0.08 | 1.59 | 1.5 | enough cells to score |
| Or5g29 | SID315480110 | – | 1.28 | 1.19 | fewer than 50 cells per well; well left out of scoring |
| Gps1 | SID315477588 | 1.38 | 1.58 | 1.58 | enough cells to score |
| Sh2d7 | SID315479789 | – | 1.22 | 1.42 | fewer than 50 cells per well; well left out of scoring |
| Elf3 | SID315466482 | -1.53 | 1.24 | 1.19 | enough cells to score |
| Cyp2j5 | SID315466239 | 0.31 | 1.62 | 1.84 | enough cells to score |
| Dctd | SID315481368 | 0.12 | 1.56 | 1.36 | enough cells to score |
| Gm9801 | SID315481603 | – | 1.28 | 1.65 | fewer than 50 cells per well; well left out of scoring |
| Qrfp | SID315478593 | 0.51 | 1.5 | 1.3 | enough cells to score |
| Vmn1r214 | SID315477324 | – | 1.14 | 1.1 | fewer than 50 cells per well; well left out of scoring |
| Efr3a | SID315475369 | -1.37 | 1.16 | 1.55 | enough cells to score |
| Efr3a | SID315481274 | -0.24 | 1.6 | 1.68 | enough cells to score |

Entries listed so far whose target name starts with E or e:
| gene | PubChem SID | p65 translocation robust z-score | nuclear/cytoplasmic p65 ratio, rep 1 | nuclear/cytoplasmic p65 ratio, rep 2 | low cell count flag |
| --- | --- | --- | --- | --- | --- |
| Elf3 | SID315466482 | -1.53 | 1.24 | 1.19 | enough cells to score |
| Efr3a | SID315475369 | -1.37 | 1.16 | 1.55 | enough cells to score |
| Efr3a | SID315481274 | -0.24 | 1.6 | 1.68 | enough cells to score |
